Source: PubChem BioAssay AID330 (DTP/NCI, 2004)
The list does not hold the whole screen: it is rich in T/C values a quarter to a half above the control, in often repeated tests (any T/C) and in doses without a T/C. Other doses and runs of a compound stand elsewhere. T/C: endpoint of the treated group in % of that of the vehicle group. Some doses have a count of surviving animals in place of a T/C: the source holds a T/C of zero for them, seemingly a mark for toxic or unscored doses. Some doses without a T/C left all or most animals alive at the check, yet need not have been tolerated: the source hardly ever lists a survival T/C far under the control, and the zero likely stands for such cases as well. Counts of survivors are from the toxicity check (mostly the fifth day) where no day follows; animals may have died later. Schedule codes are those of the source, taken here to give the interval after Q, in days (D) or hours (H), and the number of doses after X. Some doses were run more than once; their values stand side by side, smallest first. Some molecules as drawn cover several salts, stereoisomers or complexes of the source; a dose is that of the sample tested. For survival time, this PubChem deposit counts one and a half times the control or more as active, and values a quarter to a half above the control carry no call in these data; other NCI protocols may use other cut-offs. Some T/C values carry the count of animals alive at the toxicity check (mostly the fifth day); without a count, all were alive then.

Test system: P388 leukemia ip, CD2F1 mice, survival T/C
Test: NCI In Vivo Anticancer Drug Screen. Data for tumor model P388 Leukemia (intraperitoneal) in CD2F1 (CDF1) mice
Conditions: T/C endpoint: median survival time, higher T/C = longer survival
[1] = dose: 80.0 micrograms/kg/injection, schedule: Q01DX005 (ip), vehicle: saline + alcohol
[2] = dose: 200.0 mg/kg/injection, schedule: Q01DX005 (ip), vehicle: saline with Tween-80
[3] = dose: 200.0 mg/kg/injection, schedule: Q01DX009 (ip), vehicle: saline with Tween-80
[4] = dose: 50.0 mg/kg/injection, schedule: Q01DX005 (ip), vehicle: Klucel (hydroxypropylcellulose) (HPC)
[5] = dose: 100.0 mg/kg/injection, schedule: Q01DX005 (ip), vehicle: Klucel (hydroxypropylcellulose) (HPC)
[6] = dose: 200.0 mg/kg/injection, schedule: Q01DX005 (ip), vehicle: Klucel (hydroxypropylcellulose) (HPC)
[7] = dose: 100.0 mg/kg/injection, schedule: Q01DX009 (ip), vehicle: Klucel (hydroxypropylcellulose) (HPC)
[8] = dose: 200.0 mg/kg/injection, schedule: Q01DX009 (ip), vehicle: Klucel (hydroxypropylcellulose) (HPC)
[9] = dose: 132.0 mg/kg/injection, schedule: Q04DX003 (ip), vehicle: saline with Tween-80
[10] = dose: 50.0 mg/kg/injection, schedule: Q01DX009 (ip), vehicle: saline
[11] = dose: 100.0 mg/kg/injection, schedule: Q01DX009 (ip), vehicle: saline
[12] = dose: 200.0 mg/kg/injection, schedule: Q01DX009 (ip), vehicle: saline
[13] = dose: 25.0 mg/kg/injection, schedule: Q01DX009 (ip), vehicle: saline
[14] = dose: 200.0 mg/kg/injection, schedule: Q04DX002 (ip), vehicle: Klucel (hydroxypropylcellulose) (HPC)

O=c1oc2ccccc2c2c1C(c1ccc3c(c1)OCO3)C=C(c1ccc3c(c1)OCO3)O2 (centres undefined)
survivor count (dose: 400.0 mg/kg/injection, schedule: Q01DX009 (ip), vehicle: water): 4 of 6
survivor count (dose: 600.0 mg/kg/injection, schedule: Q01DX009 (ip), vehicle: water): 5 of 5

CC1C(O)[C@@]2(OC[C@@]34C(=O)CC5(O)[C@H](CCC6Cc7nc8c(nc7C[C@]65C)CC5CC[C@@H]6C7=C[C@H]9O[C@@]%10(O[C@@](C)(CO)C[C@@H]%10O)C(C)[C@@]9(O)[C@]7(C)[C@@H](O)CC6[C@]5(C)C8)C3=CC[C@H]4C2C)OC1(C)C (some centres undefined)
survivor count (dose: 75.0 micrograms/kg/injection, schedule: Q01DX009 (ip), vehicle: saline + alcohol): 6 of 6
T/C [1]: 130 % of control
survivor count [1]: 6 of 6
survivor count (dose: 80.0 micrograms/kg/injection, schedule: Q01DX009 (ip), vehicle: saline + alcohol): 6 of 6
survivor count (dose: 150.0 micrograms/kg/injection, schedule: Q01DX009 (ip), vehicle: saline + alcohol): 2 of 6
survivor count (dose: 160.0 micrograms/kg/injection, schedule: Q01DX005 (ip), vehicle: saline + alcohol): 2 of 6
survivor count (dose: 160.0 micrograms/kg/injection, schedule: Q01DX009 (ip), vehicle: saline + alcohol): 1 of 6
survivor count (dose: 300.0 micrograms/kg/injection, schedule: Q01DX009 (ip), vehicle: saline + alcohol): 0 of 5
survivor count (dose: 320.0 micrograms/kg/injection, schedule: Q01DX009 (ip), vehicle: saline + alcohol): 0 of 6
survivor count (dose: 600.0 micrograms/kg/injection, schedule: Q01DX009 (ip), vehicle: saline + alcohol): 0 of 4

CCCCNC1CC(OC2CC(O)(C(C)O)Cc3c(O)c4c(c(O)c32)C(=O)c2c(OC)cccc2C4=O)OC(C)C1O (centres undefined)
T/C (dose: 2.0 mg/kg/injection, schedule: Q01DX009 (ip), vehicle: water): 139 % of control
T/C (dose: 4.0 mg/kg/injection, schedule: Q01DX009 (ip), vehicle: water): 130 % of control
T/C (dose: 8.0 mg/kg/injection, schedule: Q01DX009 (ip), vehicle: water): 143 % of control
T/C (dose: 16.0 mg/kg/injection, schedule: Q01DX009 (ip), vehicle: water): 127 % of control
T/C (dose: 32.0 mg/kg/injection, schedule: Q01DX009 (ip), vehicle: water): 127 % of control

CN(Cc1ccccc1)N=NCc1ccccc1
T/C (dose: 50.0 mg/kg/injection, schedule: Q01DX005 (ip), vehicle: saline with Tween-80): 125 % of control
survivor count [2]: 0 of 6

ClC1=C(Cl)C(Cl)=C(Cl)C1=C/C=C/c1ccccc1
survivor count [3]: 5 of 6

CNC(=O)OCc1c(COC(=O)NC)c(-c2ccc(F)cc2)n(C)c1C
T/C (dose: 6.25 mg/kg/injection, schedule: Q01DX009 (ip), vehicle: distilled water + Tween-80): 134 and 144 % of control
T/C (dose: 12.5 mg/kg/injection, schedule: Q01DX009 (ip), vehicle: distilled water + Tween-80): 130 and 142 % of control
T/C (dose: 50.0 mg/kg/injection, schedule: Q01DX009 (ip), vehicle: distilled water + Tween-80): 132 % of control
survivor count (dose: 100.0 mg/kg/injection, schedule: Q01DX009 (ip), vehicle: distilled water + Tween-80): 0 of 6 and 3 of 6

Nc1cc2c3c(cccc3c1O)CC2
survivor count [4]: 2 of 5
survivor count [5]: 0 of 5
survivor count [6]: 0 of 5

O=C1C(O)=C(O)C(=O)c2ccccc21
survivor count [7]: 0 of 6
survivor count [8]: 0 of 6

CCC(CNc1cc(OC)cc2cccnc12)NC1CCCCC1 (centres undefined)
survivor count (dose: 100.0 mg/kg/injection, schedule: Q01DX005 (ip), vehicle: saline): 0 of 5
survivor count (dose: 200.0 mg/kg/injection, schedule: Q01DX005 (ip), vehicle: saline): 0 of 5

CC1(C)N=C(N)N=C(N)N1c1ccc(CNC(=O)Nc2ccc(S(=O)(=O)F)cc2)c(Cl)c1
T/C (dose: 59.0 mg/kg/injection, schedule: Q04DX003 (ip), vehicle: saline with Tween-80): 136 % of control
T/C (dose: 88.0 mg/kg/injection, schedule: Q04DX003 (ip), vehicle: saline with Tween-80): 145 % of control
T/C (dose: 100.0 mg/kg/injection, schedule: Q04DX003 (ip), vehicle: saline with Tween-80): 140 % of control
T/C [9]: 131 % of control
survivor count [9]: 1 of 6
survivor count (dose: 200.0 mg/kg/injection, schedule: Q04DX003 (ip), vehicle: saline with Tween-80): 1 of 6 and 6 of 6
survivor count (dose: 300.0 mg/kg/injection, schedule: Q04DX003 (ip), vehicle: saline with Tween-80): 0 of 6 and 2 of 6
survivor count (dose: 400.0 mg/kg/injection, schedule: Q04DX003 (ip), vehicle: saline with Tween-80): 2 of 6

O=C(CC(=O)C(F)(F)F)c1cccs1
survivor count (dose: 100.0 mg/kg/injection, schedule: Q01DX009 (ip), vehicle: saline with Tween-80): 1 of 6
survivor count [3]: 0 of 6
survivor count (dose: 400.0 mg/kg/injection, schedule: Q01DX009 (ip), vehicle: saline with Tween-80): 0 of 6

Nc1ccn(C2CC(O)C(CO)O2)c(=O)n1 (centres undefined)
survivor count (dose: 2.3 mg/kg/injection, schedule: Q01DX009 (ip), vehicle: water): 6 of 6
T/C (dose: 9.38 mg/kg/injection, schedule: Q01DX009 (ip), vehicle: water): 131 % of control

C1C[S][Hg][S]CCO1
survivor count (dose: 25.0 mg/kg/injection, schedule: Q01DX009 (ip), vehicle: suspension in saline): 0 of 6
survivor count [10]: 1 of 6
survivor count [11]: 2 of 6
survivor count [12]: 4 of 6

CCCCCCCC/C=C\C(O)=C1\C(=O)NC(CCCNC(=O)OCc2ccccc2)C1=O (centres undefined)
survivor count (dose: 100.0 mg/kg/injection, schedule: Q04DX002 (ip), vehicle: saline with Tween-80): 6 of 6

CCN(CC)C(=NC(C)(C)C)c1ccccc1
survivor count (dose: 6.25 mg/kg/injection, schedule: Q01DX009 (ip), vehicle: saline): 6 of 6
T/C (dose: 12.5 mg/kg/injection, schedule: Q01DX009 (ip), vehicle: saline): 86, 94, 101 [5 of 6 alive], 121 % of control
T/C [13]: 88 [5 of 6 alive], 101, 111 % of control
survivor count [13]: 2 of 6
survivor count [4]: 1 of 5
survivor count [10]: 0 of 6
survivor count [5]: 0 of 5
survivor count [11]: 3 of 6
survivor count [6]: 0 of 5
survivor count [12]: 0 of 6

O=C1Nc2c(Cl)cc(Cl)cc2/C1=N/N=C/c1ccccc1O
survivor count (dose: 100.0 mg/kg/injection, schedule: Q01DX005 (ip), vehicle: saline with Tween-80): 5 of 5
survivor count [2]: 5 of 5

COc1cc2c3c(c1)-c1c(ccc(OC)c1O)CC3N(C)CC2 (centres undefined)
survivor count (dose: 100.0 mg/kg/injection, schedule: Q04DX003 (ip), vehicle: DMSO): 3 of 6

NNC(=O)c1ccc(NC(=O)CSc2nc3ccccc3s2)cc1
survivor count (dose: 50.0 mg/kg/injection, schedule: Q01DX009 (ip), vehicle: Klucel (hydroxypropylcellulose) (HPC)): 3 of 6
survivor count [7]: 0 of 6
survivor count [8]: 0 of 6

NCC=C1C2CC3CC(C2)CC1C3
survivor count [13]: 6 of 6
survivor count [10]: 6 of 6
survivor count [11]: 2 of 6
survivor count [12]: 0 of 6

COc1ccc([C@@H]2c3cc4c(cc3C[C@H]3COC(=O)[C@@H]32)OCO4)cc1OC
T/C (dose: 50.0 mg/kg/injection, schedule: Q04DX002 (ip), vehicle: Klucel (hydroxypropylcellulose) (HPC)): 126 % of control
T/C (dose: 100.0 mg/kg/injection, schedule: Q04DX002 (ip), vehicle: Klucel (hydroxypropylcellulose) (HPC)): 141 % of control
T/C [14]: 144 % of control
survivor count [14]: 5 of 6
survivor count (dose: 400.0 mg/kg/injection, schedule: Q04DX002 (ip), vehicle: Klucel (hydroxypropylcellulose) (HPC)): 2 of 6
